We go through two molecules from publication PMC11687307, “The calcium-binding protein S100A1 binds to titin’s N2A insertion sequence in a pH-dependent manner” (The Journal of General Physiology, 2024).

B1: S100A1 (mouse) (natural protein)
chain: MGSELESAMETLINVFHAHSGQEGDKYKLSKKELKDLLQTELSGFLDVQKDADAVDKVMKELDENGDGEVDFKEYVVLVAALTVACNNFFWETS
notes: S100A1, mouse; No tag is named; source: E. coli BL21(DE3), purified (Capto-Q anion exchange, phenyl Sepharose)

Experiment [1] concerns the target UN2A-FRET (UN2A inserted between CFP and YFP) (mouse). Kind of experiment: condition: only without Ca^2+ (pCa 10, 1 mM EGTA), pH 7.4; 1 µM; FRET or BRET; FRET within the CFP-UN2A-YFP reporter with and without S100A1; protein at 1 µM; 10 mM HEPES, 100 mM NaCl, 1 mM EGTA (pCa 10), pH 7.4; 1 h, room temperature; excitation 433 nm; both purified.
Experiment [2] has the same target. Kind of experiment: SEC; HPLC on TSKgel G2000SWxl; UN2A-FRET 20 µM mixed with S100A1 0 to 25 µM, 30 min at room temperature; 150 mM NaCl, 20 mM HEPES, 1 mM CaCl2 (pCa 3), pH 7.4; both purified. A general note: In gel filtration, larger molecules generally elute earlier.
Experiment [3] has the same target. Kind of experiment: condition: only without Ca^2+ (pCa 10, 1 mM EGTA), pH 6; 1 µM; FRET or BRET; FRET within the CFP-UN2A-YFP reporter with and without S100A1; protein at 1 µM; 10 mM HEPES, 100 mM NaCl, 1 mM EGTA (pCa 10), pH 6; 1 h, room temperature; excitation 433 nm; both purified.
The target is the same in experiment [4]. Kind of experiment: condition: only without Ca^2+ (pCa 10, 1 mM EGTA); S100A1 up to 25 µM; SEC; HPLC on TSKgel G2000SWxl; UN2A-FRET 20 µM mixed with S100A1 0 to 25 µM, 30 min at room temperature; 150 mM NaCl, 20 mM HEPES, 1 mM EGTA (pCa 10), pH 7.4; both purified.
Experiment [5] concerns the target B1. Kind of experiment: co-IP; purified proteins, 500 µg each, with anti-S100A1 antibody overnight at 4°C, captured on magnetic beads; 250 mM NaCl, 20 mM HEPES, 1 mM Ca^2+, pH 6; SDS-PAGE, silver staining, densitometry; both purified.

Results are given in words; binding and its absence hold for the method and conditions named. Some binding calls cover weakened binding; strength is not graded here.

In the case of B1, the binding entry in experiment [1] is “no binding”; in experiment [2], “binds weakly”; in experiment [3], “no binding”; in experiment [4] it was “no binding”.

B2: UN2A, unique insertion sequence of the N2A region of titin (mouse, amino acids 8539-8655) (domain or fragment)
chain: DERKKQEKIEGDLRAMLKKTPALKKGSGEEEEIDIMELLKNVDPKEYEKYARMYGITDFRGLLQAFELLKQSQEEETHRLEIEELEKSERDEKEFEELVAFIQQRLTQTEPVTLIKD
notes: titin, mouse, UN2A region between Ig domains I80 and I81, amino acids 8539-8655; Gene synthesised by GeneArt; No tag is named; source: E. coli BL21(DE3) pLysS, purified (Capto-Q anion exchange, SEC)
Turning to B2, the binding result in experiment [5] is recorded as “binds weakly”.
